The target in assay [1] is NRP1 (Neuropilin-1), endogenous in mouse HSCs (mouse (endogenous in primary mouse HSCs and murine HSCs)) (UniProt P97333). Put plainly: co-IP; endogenous proteins; lysates (NETN buffer) of primary mouse HSCs and murine HSCs, 400 μg cell extract; IP with NRP1 or USP9X antibody overnight at 4 °C, protein A/G agarose beads, WB; IgG as isotype control.
In assay [2] the target is Flag-NRP1, co-transfected in HEK293T cells (murine) (UniProt P97333). Put plainly: co-IP; HEK293T cells cotransfected with Myc-USP9X and Flag-NRP1 or their deletion mutants for 24 h; IP of lysates with Flag beads (panel H: 'His beads'), IB with antibodies against Flag and Myc.

The chains behind the UniProt entries cited, without tags or fusion partners.
UniProt P70398: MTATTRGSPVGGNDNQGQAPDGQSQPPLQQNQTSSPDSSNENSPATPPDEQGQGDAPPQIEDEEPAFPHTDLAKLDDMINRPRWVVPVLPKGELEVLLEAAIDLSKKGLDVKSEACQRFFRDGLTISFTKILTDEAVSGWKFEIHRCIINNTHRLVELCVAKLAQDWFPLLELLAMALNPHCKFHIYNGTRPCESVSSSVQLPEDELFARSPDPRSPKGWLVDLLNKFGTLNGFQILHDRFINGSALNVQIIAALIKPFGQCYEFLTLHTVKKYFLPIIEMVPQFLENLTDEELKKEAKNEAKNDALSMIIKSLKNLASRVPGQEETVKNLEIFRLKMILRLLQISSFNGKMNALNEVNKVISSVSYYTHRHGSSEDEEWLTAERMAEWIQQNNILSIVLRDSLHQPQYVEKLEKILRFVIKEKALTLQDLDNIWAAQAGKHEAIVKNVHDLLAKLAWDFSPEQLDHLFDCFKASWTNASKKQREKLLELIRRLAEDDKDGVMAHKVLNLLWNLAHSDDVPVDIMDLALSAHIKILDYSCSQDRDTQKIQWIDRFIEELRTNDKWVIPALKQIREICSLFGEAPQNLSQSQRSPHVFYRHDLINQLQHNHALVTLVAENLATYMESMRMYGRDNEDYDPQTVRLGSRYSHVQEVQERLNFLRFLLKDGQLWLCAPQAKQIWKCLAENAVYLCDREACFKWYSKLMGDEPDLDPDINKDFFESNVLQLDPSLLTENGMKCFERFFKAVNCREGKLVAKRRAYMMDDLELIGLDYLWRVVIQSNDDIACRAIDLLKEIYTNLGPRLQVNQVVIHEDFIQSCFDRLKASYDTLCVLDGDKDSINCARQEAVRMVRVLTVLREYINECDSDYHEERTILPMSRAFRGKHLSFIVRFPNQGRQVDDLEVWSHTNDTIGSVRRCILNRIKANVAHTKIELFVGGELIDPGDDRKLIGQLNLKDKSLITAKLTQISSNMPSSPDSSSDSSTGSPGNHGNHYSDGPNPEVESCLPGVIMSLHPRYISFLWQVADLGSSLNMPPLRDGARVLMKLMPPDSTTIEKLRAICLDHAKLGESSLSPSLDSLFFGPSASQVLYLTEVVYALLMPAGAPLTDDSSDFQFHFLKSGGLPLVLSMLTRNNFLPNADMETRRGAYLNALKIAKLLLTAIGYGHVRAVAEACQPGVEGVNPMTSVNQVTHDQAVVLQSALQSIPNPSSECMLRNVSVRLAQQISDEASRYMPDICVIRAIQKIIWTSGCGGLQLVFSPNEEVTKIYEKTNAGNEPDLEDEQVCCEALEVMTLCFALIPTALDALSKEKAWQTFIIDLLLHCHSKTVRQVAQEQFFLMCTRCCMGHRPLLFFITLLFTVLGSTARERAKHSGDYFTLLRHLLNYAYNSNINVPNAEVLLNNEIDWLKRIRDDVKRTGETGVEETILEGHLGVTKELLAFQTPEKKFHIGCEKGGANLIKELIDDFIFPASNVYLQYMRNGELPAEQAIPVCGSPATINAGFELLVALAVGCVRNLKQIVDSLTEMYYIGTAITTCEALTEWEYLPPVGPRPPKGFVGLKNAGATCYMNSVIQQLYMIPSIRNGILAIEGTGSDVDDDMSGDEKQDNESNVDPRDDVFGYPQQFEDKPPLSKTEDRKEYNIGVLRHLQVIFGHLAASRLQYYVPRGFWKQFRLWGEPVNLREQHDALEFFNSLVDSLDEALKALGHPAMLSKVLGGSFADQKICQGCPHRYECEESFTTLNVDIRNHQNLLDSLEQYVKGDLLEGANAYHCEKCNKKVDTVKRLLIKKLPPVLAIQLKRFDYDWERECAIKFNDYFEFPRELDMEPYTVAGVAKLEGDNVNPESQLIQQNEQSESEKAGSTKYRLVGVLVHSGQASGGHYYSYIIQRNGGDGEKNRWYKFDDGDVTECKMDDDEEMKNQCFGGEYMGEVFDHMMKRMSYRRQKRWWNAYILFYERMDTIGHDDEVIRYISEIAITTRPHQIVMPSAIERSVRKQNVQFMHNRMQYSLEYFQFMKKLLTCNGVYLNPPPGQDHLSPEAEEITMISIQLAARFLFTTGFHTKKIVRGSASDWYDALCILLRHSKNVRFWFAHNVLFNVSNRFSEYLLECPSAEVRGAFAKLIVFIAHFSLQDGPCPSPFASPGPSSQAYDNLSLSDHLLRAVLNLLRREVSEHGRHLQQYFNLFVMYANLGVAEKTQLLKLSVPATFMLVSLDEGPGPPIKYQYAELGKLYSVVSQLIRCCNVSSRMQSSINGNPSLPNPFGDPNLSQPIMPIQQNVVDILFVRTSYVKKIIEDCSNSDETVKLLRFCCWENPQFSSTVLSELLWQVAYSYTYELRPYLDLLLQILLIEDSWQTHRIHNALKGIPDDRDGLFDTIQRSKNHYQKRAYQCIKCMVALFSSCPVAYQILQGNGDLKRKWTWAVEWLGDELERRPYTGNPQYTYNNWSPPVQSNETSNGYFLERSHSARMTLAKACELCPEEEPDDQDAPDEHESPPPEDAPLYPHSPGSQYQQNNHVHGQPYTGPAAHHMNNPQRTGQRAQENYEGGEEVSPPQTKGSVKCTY

These are yes or no findings as the source states them, for the method shown. Binding seen in cells or lysates may run through a third protein. Some entries that bind do so weakly or less than the wild type.

For “USP9X (ubiquitin-specific peptidase 9X), endogenous in mouse HSCs (from UniProt P70398 1-2559) (enzyme)”, the binding result in assay [1] is “binds”.

As to “Myc-USP9X, co-transfected in HEK293T cells (from UniProt P70398 1-2559) (enzyme)”, in assay [2], the binding entry is “binds”.

The values above are taken from paper PMC9849111.
